{"sequences": {"note": "Amino acid sequences for entries named in this document (tags omitted). Residues count along the entry.", "UniProt P08069, 741-1367 partner limits assumed, species assumed": "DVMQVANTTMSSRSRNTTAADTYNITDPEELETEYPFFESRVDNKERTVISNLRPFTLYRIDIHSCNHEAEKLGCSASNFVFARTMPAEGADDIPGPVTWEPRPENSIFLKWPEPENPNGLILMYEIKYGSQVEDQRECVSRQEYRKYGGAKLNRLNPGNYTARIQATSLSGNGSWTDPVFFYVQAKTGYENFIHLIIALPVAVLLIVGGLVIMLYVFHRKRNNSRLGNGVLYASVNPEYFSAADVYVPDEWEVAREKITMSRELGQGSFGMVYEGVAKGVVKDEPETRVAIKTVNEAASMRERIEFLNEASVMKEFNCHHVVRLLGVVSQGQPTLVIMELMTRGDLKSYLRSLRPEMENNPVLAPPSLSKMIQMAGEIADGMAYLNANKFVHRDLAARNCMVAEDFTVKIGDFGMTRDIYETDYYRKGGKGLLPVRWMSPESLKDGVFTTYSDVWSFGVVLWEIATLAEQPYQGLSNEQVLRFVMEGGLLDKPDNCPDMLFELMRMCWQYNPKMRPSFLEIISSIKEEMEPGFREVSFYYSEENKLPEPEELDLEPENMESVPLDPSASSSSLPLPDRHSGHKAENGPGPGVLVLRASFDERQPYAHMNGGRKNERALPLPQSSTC", "UniProt P08069, 31-736 limits assumed, species assumed": "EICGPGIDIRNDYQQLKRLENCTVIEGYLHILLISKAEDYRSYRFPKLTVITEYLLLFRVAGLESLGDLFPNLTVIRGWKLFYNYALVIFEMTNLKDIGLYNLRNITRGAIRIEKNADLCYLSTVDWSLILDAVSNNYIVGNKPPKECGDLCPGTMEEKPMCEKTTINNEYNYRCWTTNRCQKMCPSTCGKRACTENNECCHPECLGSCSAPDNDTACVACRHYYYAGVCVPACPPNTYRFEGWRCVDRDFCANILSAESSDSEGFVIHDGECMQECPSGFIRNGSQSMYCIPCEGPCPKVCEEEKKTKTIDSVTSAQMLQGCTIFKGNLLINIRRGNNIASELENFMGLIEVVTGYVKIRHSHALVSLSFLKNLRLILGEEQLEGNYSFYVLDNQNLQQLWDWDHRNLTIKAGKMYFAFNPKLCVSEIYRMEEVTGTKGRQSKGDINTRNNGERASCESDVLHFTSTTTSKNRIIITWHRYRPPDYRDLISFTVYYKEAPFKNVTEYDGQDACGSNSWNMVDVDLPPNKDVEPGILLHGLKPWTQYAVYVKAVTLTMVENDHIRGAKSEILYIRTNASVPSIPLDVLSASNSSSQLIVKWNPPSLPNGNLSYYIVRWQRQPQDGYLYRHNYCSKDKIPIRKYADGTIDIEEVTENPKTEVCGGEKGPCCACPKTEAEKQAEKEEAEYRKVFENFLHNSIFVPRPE", "UniProt P06213, 28-746 isoform P06213-2 limits assumed": "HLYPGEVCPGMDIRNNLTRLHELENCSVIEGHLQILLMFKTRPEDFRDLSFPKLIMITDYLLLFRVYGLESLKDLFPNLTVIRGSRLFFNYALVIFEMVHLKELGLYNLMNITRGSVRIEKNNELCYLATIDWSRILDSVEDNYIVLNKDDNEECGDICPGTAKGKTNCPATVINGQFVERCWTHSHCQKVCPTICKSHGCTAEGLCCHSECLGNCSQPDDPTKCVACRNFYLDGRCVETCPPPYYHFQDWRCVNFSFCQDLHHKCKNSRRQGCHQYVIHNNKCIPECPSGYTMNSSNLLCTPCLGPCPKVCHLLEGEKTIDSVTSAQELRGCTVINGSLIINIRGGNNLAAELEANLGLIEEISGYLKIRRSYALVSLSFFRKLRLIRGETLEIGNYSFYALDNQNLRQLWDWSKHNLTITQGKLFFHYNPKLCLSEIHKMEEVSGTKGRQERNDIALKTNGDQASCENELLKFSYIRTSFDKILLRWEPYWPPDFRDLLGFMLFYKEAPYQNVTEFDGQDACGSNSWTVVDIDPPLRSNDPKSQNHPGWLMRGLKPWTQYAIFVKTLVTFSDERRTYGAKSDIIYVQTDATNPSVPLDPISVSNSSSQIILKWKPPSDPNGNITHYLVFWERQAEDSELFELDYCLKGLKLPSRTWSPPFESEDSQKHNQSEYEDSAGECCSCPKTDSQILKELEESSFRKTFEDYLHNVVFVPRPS", "UniProt P06213, 763-1382 partner limits assumed": "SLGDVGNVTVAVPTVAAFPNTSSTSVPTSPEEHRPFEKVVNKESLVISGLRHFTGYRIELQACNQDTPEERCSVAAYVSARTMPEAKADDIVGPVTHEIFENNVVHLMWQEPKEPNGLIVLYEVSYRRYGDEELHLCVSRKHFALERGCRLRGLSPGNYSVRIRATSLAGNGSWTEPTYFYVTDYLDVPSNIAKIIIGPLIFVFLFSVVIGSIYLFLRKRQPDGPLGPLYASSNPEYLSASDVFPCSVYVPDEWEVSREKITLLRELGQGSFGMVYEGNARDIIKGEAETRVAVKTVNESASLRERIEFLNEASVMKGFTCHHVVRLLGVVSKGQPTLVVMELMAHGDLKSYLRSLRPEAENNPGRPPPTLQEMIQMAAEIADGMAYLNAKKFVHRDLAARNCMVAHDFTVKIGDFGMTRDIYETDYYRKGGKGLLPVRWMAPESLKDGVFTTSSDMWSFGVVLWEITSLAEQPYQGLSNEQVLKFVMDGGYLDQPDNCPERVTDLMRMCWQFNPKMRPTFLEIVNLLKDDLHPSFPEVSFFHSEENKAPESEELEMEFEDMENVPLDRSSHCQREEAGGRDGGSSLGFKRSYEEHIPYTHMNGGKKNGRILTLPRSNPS", "UniProt P06213, 28-758 limits assumed": "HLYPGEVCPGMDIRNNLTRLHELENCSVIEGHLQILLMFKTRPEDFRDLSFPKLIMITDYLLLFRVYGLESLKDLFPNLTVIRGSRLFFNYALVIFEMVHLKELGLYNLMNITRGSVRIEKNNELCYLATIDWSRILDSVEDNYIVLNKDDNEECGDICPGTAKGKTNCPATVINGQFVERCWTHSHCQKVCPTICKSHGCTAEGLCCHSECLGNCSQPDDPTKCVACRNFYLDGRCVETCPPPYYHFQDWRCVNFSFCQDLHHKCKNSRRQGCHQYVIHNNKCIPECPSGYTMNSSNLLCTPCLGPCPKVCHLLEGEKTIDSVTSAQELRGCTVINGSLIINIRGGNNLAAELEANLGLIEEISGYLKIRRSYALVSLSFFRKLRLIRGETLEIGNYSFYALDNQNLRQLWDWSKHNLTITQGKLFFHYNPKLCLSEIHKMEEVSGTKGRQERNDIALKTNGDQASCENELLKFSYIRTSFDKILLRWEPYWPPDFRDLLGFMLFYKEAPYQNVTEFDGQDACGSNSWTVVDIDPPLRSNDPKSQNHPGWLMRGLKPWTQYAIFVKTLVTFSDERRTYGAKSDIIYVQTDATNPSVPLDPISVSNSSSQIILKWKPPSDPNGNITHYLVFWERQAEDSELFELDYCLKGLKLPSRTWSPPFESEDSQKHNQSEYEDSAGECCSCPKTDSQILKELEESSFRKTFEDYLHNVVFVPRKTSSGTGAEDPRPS"}, "source": "patent US11583572B2", "about": "“Encapsulation of ultra-stable insulin analogues with polymer melts” (CASE WESTERN RESERVE UNIVERSITY, priority 2015, dated 2023)", "key": {"[1]": {"test_system": "rats (blood glucose levels)", "assay": "Recovery of functional hormone from melt-extruded protein-PLGA polymer blend strips, assessed by rat testing", "assay_type": "in vivo", "conditions": "PLGA blend strips dissolved over 2 days in 0.01% trifluoroacetic acid at 20° C."}, "[2]": {"target": "IGF Type I receptor (IGF-1R) (Homo sapiens, UniProt P08069)", "assay": "Receptor-binding affinity, Type 1 IGF receptor"}, "Isoelectric point": {"assay": "Isoelectric point", "assay_type": "physicochemical"}, "diabetic male Lewis rats [3]": {"test_system": "diabetic male Lewis rats", "assay": "Blood glucose over time after subcutaneous injection of 57mer SCIs with and without fourth disulfide bridge", "assay_type": "in vivo", "conditions": "20 micrograms per 300 gram rat"}, "[4]": {"target": "A isoform of the insulin receptor (Homo sapiens, UniProt P06213)", "conditions": "A isoform versus B isoform"}, "[5]": {"assay": "Elution of protein from PLGA polymer cylinders in phosphate-buffered saline (Bradford assay calibrated by ELISA)", "assay_type": "physicochemical", "conditions": "PBS pH 7.4, 37° C.", "description": "FIG. 4 is a graph showing elution of ultra-stable single-chain analogue (SCI) from PLGA polymer (50-50%) in phosphate-buffered saline (pH 7.4 and 37° C.). Horizontal axis denotes soaking time. Vertical axis denotes nanograms of insulin analogue (dark gray triangles) or relative Bradford-active material in control polymers containing hen egg white lysozyme (light gray squares) or no protein (dark gray diamonds). The latter represents background signal in the Bradford assay due to non-protein material. Horizontal plateau at days 10-15 represents no further elution of protein from the polymers. Samples were made with 5% PEG (mean molecular mass 8 kDa) to optimize the near-linear rate of SCI elution between 1-10 days. Immediate burst release of a portion of the material is not shown.\nElution of insulin analogue protein from a polymer melt in phosphate buffered saline (PBS) at pH 7.4 was also examined. Test cylindrical polymers were prepared with 50%-50% PLGA containing 25% weight/weight of a single-chain insulin (SCI) analogue stabilized by a fourth disulfide bridge between residues B4 and A10. The analogue (designated 4SS-81-06; SEQ ID NO: 12) contains a six-residue linker of sequence EEGPRR, two substitutions in the A domain (substitution of Thr^A8 by His and substitution of Tyr^A14 by Glu) and one substitution in the B domain (substitution of Lys^B29 by Glu). The mixed powder was heated to 95 degrees centigrade for 10 minutes and then extruded rapidly by force through using a special syringe extruder. The extruded polymeric cylinders (1 mm diameter and 8 mm in length; 10 mg) were prepared using mixtures of PL, GA and SCI powders containing 0, 5 or 10% polyethylene glycol (PEG; mean molecular mass 8 kDa). To test the effect of the free PEG molecule on the rate of release of the SCI from the polymer, the cylinders were placed in phosphate-buffered saline at pH 7.4 and 37° C. with gentle rocking with daily replacement of the buffer. 500 microliters of solution was collected daily and replaced with 500 uL of fresh PBS with (0.1%) sodium azide. Polymer was placed in solution during the afternoon of day 0 and samples were collected roughly every 24 hours after. The day 0 sample was collected immediately (<5 minutes) after polymer was immersed in solution.\nThe cumulative amounts of protein released are also provided below in Table 1. In this table the micrograms of insulin corresponding to the Bradford assay was verified by ELISA whereas the readings for lysozyme are uncalibrated by an independent assay."}, "diabetic male Lewis rats [6]": {"test_system": "diabetic male Lewis rats", "assay": "Blood glucose-lowering activity of SCI released from polymer melt in streptozotocin-diabetic rats", "assay_type": "in vivo, rat", "conditions": "polymer melts prepared with 5% PEG"}, "[7]": {"target": "B isoform of the insulin receptor (Homo sapiens, UniProt P06213)", "assay": "Receptor-binding affinity, insulin receptor B isoform"}}, "note": "Where two headings read alike, the source gives them in different places. Part of at least one peptide drawing is inferred or uncertain, most often the ends. Bridges are numbered along the chain shown (N, C = ends). Where no end group is shown, it is not given here.", "data": [{"sequence": "FVNCHLCGSHLVEALYLVCGERGFFYTPRTEEGSRRSRGIVEQCCRSCCSLYQLENYCN (disulfide 4-48, 7-45, 19-58, 44-49) [SEQ ID NO: 10]", "values": [{"measurement": "recovery of functional hormone from polymer blend", "setting": "[1]", "value": "essentially complete recovery"}, {"measurement": "affinity for the Type 1 IGF receptor relative to wild-type insulin", "setting": "[2]", "value": "tenfold lower"}, {"measurement": "isoelectric point", "setting": "Isoelectric point", "value": "6.5-7.5"}, {"measurement": "isoelectric point", "setting": "Isoelectric point; listed as modified SCI containing the fourth disulfide bridge", "value": "~7.4"}]}, {"sequence": "FVNQHLCGSHLVEALYLVCGERGFFYTDPTEEGPRRGIVEQCCHSICSLEQLENYCN (disulfide 7-43, 19-56, 42-47) [81-04]", "values": [{"measurement": "biological activity (blood glucose) with versus without fourth disulfide bridge", "setting": "diabetic male Lewis rats [3]", "value": "essentially identical"}, {"measurement": "insulin receptor isoform preference", "setting": "[4]", "value": "preference for the A isoform"}]}, {"sequence": "FVNQHLCGSHLVEALYLVCGERGFFYTPRTEEGSRRSRGIVEQCCRSICSLYQLENYCN (disulfide 7-45, 19-58, 44-49) [SEQ ID NO: 9]", "values": [{"measurement": "recovery of functional hormone from polymer blend", "setting": "[1]", "value": "~40", "unit": "%"}]}, {"sequence": "FVNCHLCGSHLVEALYLVCGERGFFYTPETEEGPRRGIVEQCCHSCCSLEQLENYCN (disulfide 4-46, 7-43, 19-56, 42-47) [4SS-81-06]", "values": [{"measurement": "protein release from PLGA polymer", "setting": "[5]; 0% PEG, over 10 days", "value": "little protein was released"}, {"measurement": "protein release from PLGA polymer", "setting": "[5]; 5% PEG, 10-day period", "value": "near-linear release of ca. half of the loaded protein"}, {"measurement": "protein release from PLGA polymer during days 10-15", "setting": "[5]; 5% PEG, days 10-15", "value": "no further release"}, {"measurement": "protein release from PLGA polymer", "setting": "[5]; 10% PEG", "value": "substantial release over 1-2 days"}, {"measurement": "blood glucose-lowering activity of virgin SCI versus protein eluted after day 1 and day 5", "setting": "diabetic male Lewis rats [6]", "value": "indistinguishable"}]}, {"sequence": "FVNCHLCGSHLVEALYLVCGERGFFYTDPTEEGPRRGIVEQCCHSCCSLEQLENYCN (disulfide 4-46, 7-43, 19-56, 42-47) [4SS 81-04]", "values": [{"measurement": "biological activity (blood glucose) with versus without fourth disulfide bridge", "setting": "diabetic male Lewis rats [3]", "value": "essentially identical"}, {"measurement": "affinity for the B isoform of the insulin receptor relative to wild-type human insulin (fold reduction)", "setting": "[7]", "value": "reduced by between fivefold and tenfold"}, {"measurement": "affinity for the Type 1 IGF receptor relative to wild-type insulin", "setting": "[2]", "value": "reduced by between fivefold and tenfold"}, {"measurement": "insulin receptor isoform preference", "setting": "[4]", "value": "preference for the A isoform"}]}]}
